Values from PubChem BioAssay AID504808 (Drosophila RNAi Screening Center, 2011).
Purpose: 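Chromatin factors that keep E2F targets switched off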 (primary screen). System: Drosophila S2 cells. Knock-down reagent: long dsRNA against Drosophila genes. Measured: 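Dual luciferase plate measurements; E2F-specific signal taken as firefly over Renilla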. Scale: E2F firefly: higher = more E2F reporter activity; Renilla normaliser: higher = more normaliser reporter signal. Active means: 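a knock-down counted as active when the firefly/Renilla E2F signal rose above 50%, a threshold chosen arbitrarily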.
In all, the deposit lists about 21,000 reagents; this is an unselected part of those that have a named target and a result. In the full data, 18 (0.084%) are marked active. 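Raw counts without plate normalisation, one of two replicates; the ratio scores behind the calls were not deposited.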 Unmarked entries are inactive. The numbers tell different reagents against one gene apart. Names joined by + are all predicted targets of the reagent. Reagent sequences are not shown. The record does not give: the amount of reagent, the time to read-out.

| target | reagent no. | E2F firefly, rep 1 | Renilla normaliser, rep 1 |
| --- | --- | --- | --- |
| ACXB (GeneID 53427) | 1 | 1.08e5 | 4137 |
| Gr33a (GeneID 34641) | 1 | 93379 | 4473 |
| CG14075 (GeneID 40071) | 1 | 1.16e5 | 5457 |
| Inx7 (GeneID 33027) | 1 | 1.04e5 | 5020 |
| SMC2 (GeneID 36653) | 1 | 3038 | 157 |
| CG42254 (retired record) (GeneID 36644) | 1 | 1.07e5 | 4244 |
| Lsp1gamma (GeneID 38015) | 1 | 72446 | 3502 |
| CG7860 (GeneID 32488) | 1 | 8167 | 824 |
| l(2)09851 (GeneID 46662) | 1 | 1.13e5 | 4277 |
| CG32199 (GeneID 40028) | 1 | 1.67e5 | 8160 |
| NetA (GeneID 32398) | 1 | 2.45e5 | 5815 |
| CG32855 (GeneID 318250) | 1 | 92368 | 2516 |
| CG15155 (GeneID 35087) | 1 | 1.09e5 | 4695 |
| Rip11 (GeneID 32850) | 1 | 1.53e5 | 5171 |
| Rab9D + Rab9Fa + Rab9E | 1 | 1.42e5 | 6150 |
| CG10344 (GeneID 37565) | 1 | 1.03e5 | 4293 |
| CG15308 (GeneID 50415) | 1 | 1.10e5 | 5098 |
| Ssb-c31a (GeneID 34120) | 1 | 1.47e5 | 5185 |
| Prp19 (GeneID 37123) | 1 | 1.11e5 | 4862 |
| CG15021 (GeneID 38546) | 1 | 89634 | 3513 |
| CG11670 (GeneID 41608) | 1 | 1.08e5 | 5872 |
| CG44433 (GeneID 37150) | 1 | 1.47e5 | 5761 |
| CG44433 (GeneID 37150) | 2 | 1.53e5 | 4894 |
| Der-2 (GeneID 42005) | 1 | 91853 | 5056 |
| CG33124 (GeneID 318891) | 1 | 1.63e5 | 5115 |
| phol (GeneID 39095) | 1 | 74036 | 3383 |
| l(2)k05819 (GeneID 33644) | 1 | 92148 | 3566 |
| cd (GeneID 42681) | 1 | 1.12e5 | 5847 |
| Cdk2 (GeneID 42453) | 1 | 62695 | 2568 |
| CG13014 (GeneID 32626) | 1 | 1.59e5 | 6553 |
| ZnT63C (GeneID 38407) | 1 | 1.26e5 | 3606 |
| ZnT63C (GeneID 38407) | 2 | 1.34e5 | 3777 |
| ZnT63C (GeneID 38407) | 3 | 74850 | 3562 |
| CG33914 (GeneID 3772464) | 1 | 1.36e5 | 6165 |
| CG6118 (GeneID 41884) | 1 | 92602 | 5782 |
| CG4860 (GeneID 41480) | 1 | 73863 | 3764 |
| Met75Ca + Met75Cb | 1 | 1.27e5 | 4127 |
| Met75Ca + Met75Cb | 2 | 1.62e5 | 9285 |
| CG7236 (GeneID 33798) | 1 | 1.27e5 | 4821 |
| CG10089 (GeneID 39517) | 1 | 1.08e5 | 6279 |
| CG10089 (GeneID 39517) | 2 | 1.33e5 | 6732 |
| CG13908 (retired record) (GeneID 38110) | 1 | 1.07e5 | 4203 |
| AlaRS (GeneID 34156) | 1 | 99996 | 3623 |
| Scgalpha (GeneID 34135) | 1 | 1.56e5 | 4884 |
| CR12628 + Mgstl | 1 | 1.08e5 | 4437 |
| CR12628 + Mgstl | 2 | 1.42e5 | 154 |
| alka (GeneID 36145) | 1 | 1.47e5 | 5073 |
| mus304 (GeneID 40003) | 1 | 1.76e5 | 8962 |
| CG30283 (GeneID 37454) | 1 | 1.06e5 | 5017 |
| tipE (GeneID 38504) | 1 | 79151 | 3917 |
| haf (GeneID 33339) | 1 | 1.73e5 | 5908 |
| TTLL6B (GeneID 43282) | 1 | 85783 | 6712 |
| Timp (GeneID 41248) | 1 | 65898 | 3220 |

Reformatted: entries from further up.
{"target": "NetA (GeneID 32398)", "reagent no.": 1, "E2F firefly, rep 1": 2.45e5, "Renilla normaliser, rep 1": 5815}
{"target": "CG32855 (GeneID 318250)", "reagent no.": 1, "E2F firefly, rep 1": 92368, "Renilla normaliser, rep 1": 2516}
{"target": "CG15155 (GeneID 35087)", "reagent no.": 1, "E2F firefly, rep 1": 1.09e5, "Renilla normaliser, rep 1": 4695}
{"target": "Rip11 (GeneID 32850)", "reagent no.": 1, "E2F firefly, rep 1": 1.53e5, "Renilla normaliser, rep 1": 5171}
{"target": "Rab9D + Rab9Fa + Rab9E", "reagent no.": 1, "E2F firefly, rep 1": 1.42e5, "Renilla normaliser, rep 1": 6150}
{"target": "CG10344 (GeneID 37565)", "reagent no.": 1, "E2F firefly, rep 1": 1.03e5, "Renilla normaliser, rep 1": 4293}
{"target": "CG15308 (GeneID 50415)", "reagent no.": 1, "E2F firefly, rep 1": 1.10e5, "Renilla normaliser, rep 1": 5098}
{"target": "Ssb-c31a (GeneID 34120)", "reagent no.": 1, "E2F firefly, rep 1": 1.47e5, "Renilla normaliser, rep 1": 5185}
{"target": "Prp19 (GeneID 37123)", "reagent no.": 1, "E2F firefly, rep 1": 1.11e5, "Renilla normaliser, rep 1": 4862}
{"target": "CG15021 (GeneID 38546)", "reagent no.": 1, "E2F firefly, rep 1": 89634, "Renilla normaliser, rep 1": 3513}

Further reagents follow:
| target | reagent no. | E2F firefly, rep 1 | Renilla normaliser, rep 1 |
| --- | --- | --- | --- |
| sra (GeneID 47384) | 1 | 83452 | 5728 |
| Tsp42Ef (GeneID 35615) | 1 | 1.43e5 | 4502 |
| jub (GeneID 32351) | 1 | 6506 | 812 |
| CG5011 (GeneID 50196) | 1 | 1.52e5 | 5520 |
| CG5011 (GeneID 50196) | 2 | 81394 | 3682 |
| Edem1 (GeneID 31154) | 1 | 1937 | 1016 |
| betaTub65B (GeneID 117406) | 1 | 88727 | 3957 |
| fon (GeneID 35211) | 1 | 80118 | 3309 |
| CG33253 (GeneID 2768889) | 1 | 1.53e5 | 6639 |
| CG33253 (GeneID 2768889) | 2 | 1.27e5 | 121 |
| Gnpnat (GeneID 43504) | 1 | 1847 | 952 |
| DNaseII (GeneID 48228) | 1 | 64980 | 3105 |
| Cyp49a1 (GeneID 36105) | 1 | 1.48e5 | 5089 |
| Cyp49a1 (GeneID 36105) | 2 | 1.40e5 | 5006 |
| Ccp84Aa (GeneID 40825) | 1 | 1.31e5 | 6245 |
| sr (GeneID 42162) | 1 | 83247 | 2279 |
| sr (GeneID 42162) | 2 | 47410 | 4695 |
| CG13801 (GeneID 38299) | 1 | 93218 | 3712 |
| CG6576 (GeneID 39003) | 1 | 1.06e5 | 4772 |
| CG7213 (GeneID 38924) | 1 | 96711 | 3555 |
| Dnaaf3 (GeneID 37125) | 1 | 1.48e5 | 5284 |
| por (GeneID 32818) | 1 | 1.53e5 | 7043 |
| CG17751 (GeneID 42336) | 1 | 1.45e5 | 8678 |
| frm (GeneID 38624) | 1 | 79478 | 4216 |
| Cyp9b2 (GeneID 35635) | 1 | 1.33e5 | 5086 |
| CG6845 (GeneID 38019) | 1 | 86189 | 4166 |
| CG6325 (GeneID 41268) | 1 | 65218 | 3428 |
| CG17760 (GeneID 36385) | 1 | 1.04e5 | 4070 |
| PolrMT (GeneID 33285) | 1 | 86733 | 3805 |
| CG15550 (GeneID 43666) | 1 | 1.21e5 | 6651 |
| IntS12 (GeneID 43227) | 1 | 1.66e5 | 7746 |
| FRG1 (GeneID 40228) | 1 | 1.13e5 | 6438 |
| CG13054 (GeneID 39780) | 1 | 1.53e5 | 9169 |
| NimB5 (GeneID 34815) | 1 | 1.03e5 | 4789 |
| Usp2 (GeneID 33132) | 1 | 76828 | 3023 |
| Usp2 (GeneID 33132) | 2 | 1.35e5 | 4880 |
| Usp2 (GeneID 33132) | 3 | 1.30e5 | 6646 |
| CG42812 + CG42811 | 1 | 1.00e5 | 5184 |
| CG42812 + CG42811 | 2 | 99866 | 5906 |
| tio (GeneID 44272) | 1 | 1.04e5 | 4690 |
| CG34353 (GeneID 5740590) | 1 | 1.14e5 | 5986 |
| CG34353 (GeneID 5740590) | 2 | 1.22e5 | 6459 |
| CG34353 (GeneID 5740590) | 3 | 1.19e5 | 6617 |
| CG34353 (GeneID 5740590) | 4 | 1.07e5 | 5667 |
| Xpac (GeneID 31357) | 1 | 1.09e5 | 5616 |
| AcCoAS (GeneID 40348) | 1 | 1.04e5 | 3146 |
| AcCoAS (GeneID 40348) | 2 | 97422 | 3859 |
| Eig71Ee (GeneID 39706) | 1 | 1.73e5 | 7047 |
| Z600 (GeneID 39673) | 1 | 1.54e5 | 7837 |
| Cyp6t2Psi (GeneID 3772355) | 1 | 1.17e5 | 4276 |
| CG8298 (GeneID 36282) | 1 | 1.03e5 | 4427 |
| CG42809 + CG42810 | 1 | 1.05e5 | 4874 |
| CG42809 + CG42810 | 2 | 1.02e5 | 4190 |
| ari-2 (GeneID 37542) | 1 | 90109 | 4068 |
